Results on one substance are retold here after article doi:10.1101/2023.01.01.522328.

Results are given in words; binding and its absence hold for the method and conditions named. Binding seen in cells or lysates may run through a third protein. Some results given as binding are weak or reduced against the parent protein; the word gives no strength.

This assay has as its target SARS-CoV-2 non-structural protein 2 (Flag-NSP2) (SARS-CoV-2) (UniProt P0DTD1). Kind of assay: co-IP.

Take “Argonaute 2 (AGO2) (from UniProt Q9UKV8 1-859)”: the binding result was “binds”.
